The values that follow come from the supplement of paper PMC10849652.

Amino acid sequences for entries named in this document (tags omitted). A change or cut given only in a name is not applied to a line headed by its entry.
UniProt Q96ED9: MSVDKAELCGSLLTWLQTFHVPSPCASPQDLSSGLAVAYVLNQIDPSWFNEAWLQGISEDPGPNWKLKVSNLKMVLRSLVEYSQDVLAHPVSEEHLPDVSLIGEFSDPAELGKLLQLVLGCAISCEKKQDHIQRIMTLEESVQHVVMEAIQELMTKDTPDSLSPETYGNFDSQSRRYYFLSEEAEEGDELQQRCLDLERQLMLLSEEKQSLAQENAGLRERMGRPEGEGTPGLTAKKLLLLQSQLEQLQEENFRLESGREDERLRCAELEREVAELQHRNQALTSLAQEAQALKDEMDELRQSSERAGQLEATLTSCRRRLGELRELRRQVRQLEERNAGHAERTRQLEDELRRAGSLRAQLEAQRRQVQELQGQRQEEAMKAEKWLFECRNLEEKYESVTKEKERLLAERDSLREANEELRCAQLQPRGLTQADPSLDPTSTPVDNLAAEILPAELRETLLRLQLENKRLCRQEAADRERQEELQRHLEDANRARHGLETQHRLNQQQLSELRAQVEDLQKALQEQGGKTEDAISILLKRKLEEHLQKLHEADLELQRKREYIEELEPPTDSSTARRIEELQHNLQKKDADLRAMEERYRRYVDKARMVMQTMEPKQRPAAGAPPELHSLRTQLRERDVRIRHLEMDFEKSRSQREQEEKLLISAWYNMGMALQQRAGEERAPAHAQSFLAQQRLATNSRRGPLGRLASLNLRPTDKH
UniProt P19367: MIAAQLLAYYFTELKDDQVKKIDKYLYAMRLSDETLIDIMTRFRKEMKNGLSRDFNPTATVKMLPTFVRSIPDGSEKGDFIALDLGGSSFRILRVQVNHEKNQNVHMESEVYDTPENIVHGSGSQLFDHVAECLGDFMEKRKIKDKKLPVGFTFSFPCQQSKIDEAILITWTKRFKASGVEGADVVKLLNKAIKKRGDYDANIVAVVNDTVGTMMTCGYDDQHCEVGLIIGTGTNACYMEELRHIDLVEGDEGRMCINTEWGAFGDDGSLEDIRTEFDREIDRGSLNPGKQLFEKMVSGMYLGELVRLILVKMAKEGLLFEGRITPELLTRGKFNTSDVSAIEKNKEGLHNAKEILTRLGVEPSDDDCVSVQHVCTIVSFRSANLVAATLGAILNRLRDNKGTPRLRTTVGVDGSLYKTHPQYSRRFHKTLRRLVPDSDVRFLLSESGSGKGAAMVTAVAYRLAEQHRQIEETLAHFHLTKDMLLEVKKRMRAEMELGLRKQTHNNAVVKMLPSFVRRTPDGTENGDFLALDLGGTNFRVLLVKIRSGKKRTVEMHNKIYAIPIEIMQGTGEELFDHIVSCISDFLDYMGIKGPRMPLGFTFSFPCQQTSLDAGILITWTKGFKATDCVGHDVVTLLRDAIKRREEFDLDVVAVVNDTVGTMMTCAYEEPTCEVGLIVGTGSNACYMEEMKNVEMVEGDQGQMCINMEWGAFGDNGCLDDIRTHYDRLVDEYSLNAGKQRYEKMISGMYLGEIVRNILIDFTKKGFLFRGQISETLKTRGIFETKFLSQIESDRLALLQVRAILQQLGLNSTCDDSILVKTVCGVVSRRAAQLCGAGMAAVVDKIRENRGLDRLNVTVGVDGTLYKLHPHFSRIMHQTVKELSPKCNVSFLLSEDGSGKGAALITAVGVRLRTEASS
UniProt Q8WVB3: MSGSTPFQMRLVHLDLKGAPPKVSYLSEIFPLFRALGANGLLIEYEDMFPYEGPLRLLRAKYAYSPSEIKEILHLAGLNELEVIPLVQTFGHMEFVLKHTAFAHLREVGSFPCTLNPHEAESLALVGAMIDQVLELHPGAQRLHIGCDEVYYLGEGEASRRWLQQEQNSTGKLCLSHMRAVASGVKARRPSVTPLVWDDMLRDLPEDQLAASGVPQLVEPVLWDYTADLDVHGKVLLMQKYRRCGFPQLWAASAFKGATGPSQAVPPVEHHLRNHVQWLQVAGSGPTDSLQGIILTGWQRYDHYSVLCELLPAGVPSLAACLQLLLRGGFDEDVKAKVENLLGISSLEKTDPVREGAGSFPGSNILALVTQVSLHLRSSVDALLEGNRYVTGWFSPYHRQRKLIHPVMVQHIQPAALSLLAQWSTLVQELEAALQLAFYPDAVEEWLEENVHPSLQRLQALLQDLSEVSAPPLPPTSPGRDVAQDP
UniProt P82970: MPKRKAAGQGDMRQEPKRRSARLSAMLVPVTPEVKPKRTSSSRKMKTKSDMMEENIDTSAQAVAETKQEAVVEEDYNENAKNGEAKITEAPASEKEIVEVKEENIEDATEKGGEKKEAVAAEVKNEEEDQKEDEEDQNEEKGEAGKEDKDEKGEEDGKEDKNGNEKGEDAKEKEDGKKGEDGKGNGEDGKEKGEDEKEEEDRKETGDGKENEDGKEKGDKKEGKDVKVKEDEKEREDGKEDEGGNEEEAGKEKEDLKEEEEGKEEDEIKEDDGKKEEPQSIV
UniProt Q58FG1, whole entry, looked up: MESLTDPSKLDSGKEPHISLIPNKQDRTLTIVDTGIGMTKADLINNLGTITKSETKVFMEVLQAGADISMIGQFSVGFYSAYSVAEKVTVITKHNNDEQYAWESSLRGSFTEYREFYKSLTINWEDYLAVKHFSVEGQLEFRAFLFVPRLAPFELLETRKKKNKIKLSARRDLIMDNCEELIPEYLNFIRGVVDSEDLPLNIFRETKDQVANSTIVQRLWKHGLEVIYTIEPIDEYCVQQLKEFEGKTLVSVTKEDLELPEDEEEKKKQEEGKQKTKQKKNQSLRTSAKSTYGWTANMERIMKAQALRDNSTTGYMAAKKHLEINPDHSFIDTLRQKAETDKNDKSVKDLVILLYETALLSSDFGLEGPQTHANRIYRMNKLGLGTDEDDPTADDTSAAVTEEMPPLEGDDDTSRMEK
UniProt P50135: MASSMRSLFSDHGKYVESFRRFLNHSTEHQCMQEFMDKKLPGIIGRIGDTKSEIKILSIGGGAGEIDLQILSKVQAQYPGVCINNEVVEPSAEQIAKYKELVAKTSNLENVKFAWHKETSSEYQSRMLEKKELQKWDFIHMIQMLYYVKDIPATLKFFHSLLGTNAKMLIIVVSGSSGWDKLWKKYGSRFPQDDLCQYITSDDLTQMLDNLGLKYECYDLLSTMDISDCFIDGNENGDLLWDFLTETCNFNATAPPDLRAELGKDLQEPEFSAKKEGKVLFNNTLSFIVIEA
UniProt Q8NBQ5: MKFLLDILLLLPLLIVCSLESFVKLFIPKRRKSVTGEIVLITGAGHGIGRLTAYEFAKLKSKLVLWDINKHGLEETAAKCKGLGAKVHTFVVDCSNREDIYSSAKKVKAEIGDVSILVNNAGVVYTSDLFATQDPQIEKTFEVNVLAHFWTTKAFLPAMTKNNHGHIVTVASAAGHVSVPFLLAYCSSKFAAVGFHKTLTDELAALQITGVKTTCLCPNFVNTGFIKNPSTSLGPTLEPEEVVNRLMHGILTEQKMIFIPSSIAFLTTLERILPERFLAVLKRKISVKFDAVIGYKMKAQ
UniProt Q15011: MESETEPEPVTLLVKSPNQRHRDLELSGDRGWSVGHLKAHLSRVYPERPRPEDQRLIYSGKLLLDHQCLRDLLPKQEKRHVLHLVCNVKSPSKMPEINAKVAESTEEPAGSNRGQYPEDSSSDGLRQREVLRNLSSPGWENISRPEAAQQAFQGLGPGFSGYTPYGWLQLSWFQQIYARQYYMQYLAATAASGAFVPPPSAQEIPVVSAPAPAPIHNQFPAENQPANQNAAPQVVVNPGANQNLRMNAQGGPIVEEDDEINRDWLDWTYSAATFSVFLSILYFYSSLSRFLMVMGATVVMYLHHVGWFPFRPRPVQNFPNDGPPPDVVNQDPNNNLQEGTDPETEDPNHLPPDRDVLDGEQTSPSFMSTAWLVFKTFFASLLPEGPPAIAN
UniProt Q53FT3: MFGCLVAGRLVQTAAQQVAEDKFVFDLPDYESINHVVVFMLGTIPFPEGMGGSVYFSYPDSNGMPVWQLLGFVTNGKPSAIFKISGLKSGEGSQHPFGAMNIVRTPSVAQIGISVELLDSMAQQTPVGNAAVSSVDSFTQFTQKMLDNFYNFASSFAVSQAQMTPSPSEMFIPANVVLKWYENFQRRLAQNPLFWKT
UniProt Q15651: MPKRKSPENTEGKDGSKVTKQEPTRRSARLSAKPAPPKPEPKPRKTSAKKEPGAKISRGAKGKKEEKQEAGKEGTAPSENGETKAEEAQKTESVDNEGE
UniProt Q5SSJ5: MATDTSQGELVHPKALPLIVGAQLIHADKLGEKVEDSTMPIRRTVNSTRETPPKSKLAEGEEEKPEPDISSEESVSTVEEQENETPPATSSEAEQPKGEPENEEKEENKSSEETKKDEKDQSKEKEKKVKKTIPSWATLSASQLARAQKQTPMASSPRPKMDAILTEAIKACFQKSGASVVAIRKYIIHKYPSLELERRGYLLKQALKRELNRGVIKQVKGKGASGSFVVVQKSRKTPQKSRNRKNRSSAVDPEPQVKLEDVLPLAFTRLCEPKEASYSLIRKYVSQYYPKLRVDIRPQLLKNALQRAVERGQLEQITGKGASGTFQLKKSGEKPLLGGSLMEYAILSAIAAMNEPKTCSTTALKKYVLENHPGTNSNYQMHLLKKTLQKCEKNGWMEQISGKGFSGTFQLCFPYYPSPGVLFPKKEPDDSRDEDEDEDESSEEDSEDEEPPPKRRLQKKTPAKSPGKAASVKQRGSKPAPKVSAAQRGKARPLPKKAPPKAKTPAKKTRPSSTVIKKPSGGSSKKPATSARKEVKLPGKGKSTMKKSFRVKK
UniProt Q6NVY1: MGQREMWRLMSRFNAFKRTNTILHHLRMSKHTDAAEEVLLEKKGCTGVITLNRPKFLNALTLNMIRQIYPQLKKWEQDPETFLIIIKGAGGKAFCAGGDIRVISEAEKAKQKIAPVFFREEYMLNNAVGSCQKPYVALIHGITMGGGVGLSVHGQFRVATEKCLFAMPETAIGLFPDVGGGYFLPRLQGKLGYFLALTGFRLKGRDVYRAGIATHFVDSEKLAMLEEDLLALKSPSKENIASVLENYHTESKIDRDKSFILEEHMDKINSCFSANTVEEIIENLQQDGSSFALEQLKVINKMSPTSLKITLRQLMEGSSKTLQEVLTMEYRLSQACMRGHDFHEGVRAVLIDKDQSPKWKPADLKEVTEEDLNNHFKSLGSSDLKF
UniProt Q3SXM5: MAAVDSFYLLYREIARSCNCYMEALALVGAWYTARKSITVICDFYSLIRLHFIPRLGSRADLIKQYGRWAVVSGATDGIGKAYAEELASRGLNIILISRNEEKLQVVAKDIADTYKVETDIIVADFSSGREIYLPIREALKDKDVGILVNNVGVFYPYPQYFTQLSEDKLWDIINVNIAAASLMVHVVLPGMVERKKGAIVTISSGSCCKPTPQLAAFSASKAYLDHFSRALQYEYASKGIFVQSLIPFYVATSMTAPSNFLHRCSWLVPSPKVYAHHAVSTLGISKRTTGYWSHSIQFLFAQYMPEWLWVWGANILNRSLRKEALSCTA
UniProt P51659: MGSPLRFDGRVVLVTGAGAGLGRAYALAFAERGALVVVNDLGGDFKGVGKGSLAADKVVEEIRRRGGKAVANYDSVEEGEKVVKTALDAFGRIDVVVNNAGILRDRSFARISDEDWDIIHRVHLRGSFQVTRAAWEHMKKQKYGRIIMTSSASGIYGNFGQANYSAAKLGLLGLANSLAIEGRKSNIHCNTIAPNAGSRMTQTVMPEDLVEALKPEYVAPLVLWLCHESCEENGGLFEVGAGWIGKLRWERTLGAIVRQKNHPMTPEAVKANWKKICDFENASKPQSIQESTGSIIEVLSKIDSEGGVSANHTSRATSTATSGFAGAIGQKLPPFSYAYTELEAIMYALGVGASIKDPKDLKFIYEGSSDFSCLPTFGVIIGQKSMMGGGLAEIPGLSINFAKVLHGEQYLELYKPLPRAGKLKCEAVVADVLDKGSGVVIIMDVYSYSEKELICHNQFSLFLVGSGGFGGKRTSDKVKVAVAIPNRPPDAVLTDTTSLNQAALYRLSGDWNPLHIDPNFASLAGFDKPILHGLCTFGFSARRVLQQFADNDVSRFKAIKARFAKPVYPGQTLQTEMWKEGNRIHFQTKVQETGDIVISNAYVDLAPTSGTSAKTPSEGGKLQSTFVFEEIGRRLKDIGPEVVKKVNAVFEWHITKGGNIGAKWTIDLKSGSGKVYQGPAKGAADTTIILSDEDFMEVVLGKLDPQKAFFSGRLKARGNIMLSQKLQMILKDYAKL
UniProt P00738: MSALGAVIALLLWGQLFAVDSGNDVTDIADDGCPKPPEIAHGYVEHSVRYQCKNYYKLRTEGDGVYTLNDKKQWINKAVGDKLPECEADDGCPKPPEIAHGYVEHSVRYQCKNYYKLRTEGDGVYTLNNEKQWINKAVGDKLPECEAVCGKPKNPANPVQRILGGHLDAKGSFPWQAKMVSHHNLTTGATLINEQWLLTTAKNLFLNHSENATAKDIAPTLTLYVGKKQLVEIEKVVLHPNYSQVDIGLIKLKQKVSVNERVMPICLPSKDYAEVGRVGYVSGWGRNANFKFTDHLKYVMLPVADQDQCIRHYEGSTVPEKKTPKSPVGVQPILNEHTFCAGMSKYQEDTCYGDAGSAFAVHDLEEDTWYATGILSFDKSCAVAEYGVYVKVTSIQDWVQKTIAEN

Some of the results follow.

Compound in the first assay: C1=CC=C(C=C1)[C@H](COC2=CC3=C(C=C2)NC(=O)N3)NC(=O)C4=CC=CN(C4=O)CC5=CC(=C(C=C5)F)F
Nature of the assay: log2 fold change, soluble protein after heating vs DMSO (PISA); higher = thermal stabilisation; K562 lysate, 10 uM; active = over 0.2 and 3.5 SD of the protein, either way, in both replicates (recomputed). Put shortly:
(§1)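 To prepare the extract, K562 pellets were dounce-homogenised in PBS pH 7.4 with 1 mM MgCl2, giving crude material at 1 mg/mL protein. This was treated with 10 μM compound for 30 min, then heated in aliquots for 3 min over 48°C-58°C before pooling and addition of NP-40 to 0.5% at 4°C. Centrifugation at 21,000xg for 90 min left soluble protein in the supernatant, which TMTpro 16plex LC-MS/MS quantified with equalised channel sums. Results are log-two fold changes in thermal stability compared with solvent controls, from duplicates.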
On to HMCN1 (UniProt Q96RW7), for which the log2 fold change is inactive: -0.013.
As for HOOK2 (UniProt Q96ED9), the log2 fold change was inactive: -0.261.
The same measure, in the same setting: then HK1 isoform 2 (UniProt P19367), with inactive: -0.017; and HEXD isoform 2 (UniProt Q8WVB3), with inactive: -0.067.
In the case of HMGN5 (UniProt P82970), the log2 fold change is inactive: 0.033.
Same read-out and setting: to HSP90AA4P (UniProt Q58FG1) belongs inactive: 0.012.
The same measure, in the same setting: then HNMT (UniProt P50135), with inactive: -0.018; and HSD17B11 (UniProt Q8NBQ5), with inactive: 0.087; and HOMER3 (UniProt Q9NSC5), with inactive: 0.072.
Still for that read-out and setting: then HERPUD1 (UniProt Q15011), with inactive: -0.015.
Take HNRNPUL1 (UniProt M0R247): the log2 fold change is inactive: 0.059.
On the same count and under the same terms, to HIKESHI (UniProt Q53FT3) belongs inactive: -0.101; to HMGN3 (UniProt Q15651), inactive: 0.064.
On the same count and under the same terms, to HP1BP3 (UniProt Q5SSJ5) belongs inactive: 0.007; to HIBCH (UniProt Q6NVY1), inactive: -0.004.
Still for that read-out and setting: to HSDL1 (UniProt Q3SXM5) belongs inactive: 0.005; to HSD17B4 (UniProt P51659), inactive: -0.021.

Compound in a further assay: CC1=C(SC2=C1C(=N[C@H](C3=NN=C(N32)C)CC(=O)N)C4=CC=C(C=C4)Cl)C
The description is as above. A digest of the protocol:
as §1
On to HMCN1 (UniProt Q96RW7), for which the log2 fold change is inactive: -0.002.
The same measure, in the same setting: to HOOK2 (UniProt Q96ED9) belongs inactive: 0.28; to HK1 isoform 2 (UniProt P19367), inactive: 0.017; to HEXD isoform 2 (UniProt Q8WVB3), inactive: -0.165.
Still for that read-out and setting: then HMGN5 (UniProt P82970), with inactive: 0.05; and HSP90AA4P (UniProt Q58FG1), with inactive: 0.1.
Still for that read-out and setting: to HNMT (UniProt P50135) belongs inactive: 0.074; to HSD17B11 (UniProt Q8NBQ5), inactive: 0.016.
Turning to HOMER3 (UniProt Q9NSC5), the log2 fold change is inactive: -0.276.
Still for that read-out and setting: then HERPUD1 (UniProt Q15011), with inactive: 0.066; and HNRNPUL1 (UniProt M0R247), with inactive: -0.014.
On the same count and under the same terms, to HIKESHI (UniProt Q53FT3) belongs inactive: 0.036; to HMGN3 (UniProt Q15651), inactive: -0.059.
On the same count and under the same terms, to HP1BP3 (UniProt Q5SSJ5) belongs inactive: -0.006; to HIBCH (UniProt Q6NVY1), inactive: 0.005; to HSDL1 (UniProt Q3SXM5), inactive: -0.017.
Consider HSD17B4 (UniProt P51659), for which the log2 fold change was inactive: -0.002.

Compound in a further assay: CC1=C2C(=CC=C1)N=C(N(C2=O)C3=CC=CC=C3C)CN4C=NC5=C(N=CN=C54)N
Described as above. Put shortly:
as §1
For the target HMCN1 (UniProt Q96RW7), the log2 fold change was inactive: -0.105.
For the target HIRA (UniProt P54198), the log2 fold change is inactive: 0.17.
On the same count and under the same terms, then HMGXB4 (UniProt Q9UGU5), with inactive: -0.01; and HK1 isoform 2 (UniProt P19367), with inactive: -0.002.
With HEXD isoform 2 (UniProt Q8WVB3), the log2 fold change is inactive: 0.065.
Same read-out and setting: to HMGN5 (UniProt P82970) belongs inactive: -0.008; to HSF2 (UniProt Q03933), inactive: -0.034.
Same read-out and setting: to HSP90AA4P (UniProt Q58FG1) belongs inactive: -0.008.
Same read-out and setting: then HECW2 (UniProt Q9P2P5), with inactive: -0.048.
For the target HPS3 (UniProt Q969F9), the log2 fold change was inactive: -0.048.
Same read-out and setting: then HSD17B11 (UniProt Q8NBQ5), with inactive: 0.005; and HERPUD1 (UniProt Q15011), with inactive: 0.009; and HIKESHI (UniProt Q53FT3), with inactive: 0.006.
HELZ2 (UniProt Q9BYK8): the log2 fold change was inactive: -0.117.
The same measure, in the same setting: then HNRNPM (UniProt M0R019), with inactive: -0.116; and HP1BP3 (UniProt Q5SSJ5), with inactive: 0.012.
On to HIBCH (UniProt Q6NVY1), for which the log2 fold change was inactive: 0.026.
The same measure, in the same setting: to HSDL1 (UniProt Q3SXM5) belongs inactive: -0.014; to HSD17B4 (UniProt P51659), inactive: 0.001.

Compound in the next assay: Cc1sc2c(c1C)C(c1ccc(Cl)cc1)=N[C@@H](CC(=O)OC(C)(C)C)c1nnc(C)n1-2
The assay is described as above. A digest of the protocol:
as §1
For the target HIRA (UniProt P54198), the log2 fold change is inactive: 0.081.
The same measure, in the same setting: then HOOK2 (UniProt Q96ED9), with inactive: -0.005; and HEXIM2 (UniProt Q96MH2), with inactive: 0.05.
Still for that read-out and setting: to HK1 isoform 2 (UniProt P19367) belongs inactive: 0.016; to HMGN5 (UniProt P82970), inactive: -0.026; to HSF2 (UniProt Q03933), inactive: -0.064.
On to HSP90AA4P (UniProt Q58FG1), for which the log2 fold change is inactive: -0.101.
The same measure, in the same setting: then HNRNPC isoform 2 (UniProt P07910), with inactive: 0.054; and HECW2 (UniProt Q9P2P5), with inactive: -0.093.
In the case of HNMT (UniProt P50135), the log2 fold change is inactive: -0.101.
Same read-out and setting: then HPS3 (UniProt Q969F9), with inactive: 0.057; and HOOK1 (UniProt Q9UJC3), with inactive: -0.158.
On to HP (UniProt P00738), for which the log2 fold change is inactive: -0.16.
As to HSD17B11 (UniProt Q8NBQ5), the log2 fold change is inactive: -0.025.
On to HNRNPU isoform 2 (UniProt Q00839), for which the log2 fold change is inactive: -0.004.
HES1 (UniProt Q14469): the log2 fold change was inactive: 0.108.
Same read-out and setting: then HPGD (UniProt P15428), with inactive: -0.216; and HIGD1A isoform 2 (UniProt Q9Y241), with inactive: -0.005.
As for HPS6 (UniProt Q86YV9), the log2 fold change was inactive: -0.116.
On the same count and under the same terms, to HIKESHI (UniProt Q53FT3) belongs inactive: -0.023.
Still for that read-out and setting: then HMGA1 isoform 2 (UniProt P17096), with inactive: 0.055; and HRAS (UniProt P01112), with inactive: 0.19; and HELLS (UniProt Q9NRZ9), with inactive: 0.009.
On the same count and under the same terms, to HMGN3 (UniProt Q15651) belongs inactive: -0.005.
HP1BP3 (UniProt Q5SSJ5): the log2 fold change is inactive: -0.078.
Still for that read-out and setting: then HIBCH (UniProt Q6NVY1), with inactive: 0.021; and HSDL1 (UniProt Q3SXM5), with inactive: -0.012.
Same read-out and setting: then HERC3 (UniProt Q15034), with inactive: 0.01; and HIGD2A (UniProt Q9BW72), with inactive: 0.224.
Still for that read-out and setting: then HSD17B4 (UniProt P51659), with inactive: 0.026.
